For one substance, binding results are on record in paper PMC8630017, “Structural insights into proteolytic activation of the human Dispatched1 transporter for Hedgehog morphogen release” (Nature Communications, 2021).

Amino acid sequences for entries named in this document (tags omitted). A change or cut given only in a name is not applied to a line headed by its entry.
UniProt Q96F81: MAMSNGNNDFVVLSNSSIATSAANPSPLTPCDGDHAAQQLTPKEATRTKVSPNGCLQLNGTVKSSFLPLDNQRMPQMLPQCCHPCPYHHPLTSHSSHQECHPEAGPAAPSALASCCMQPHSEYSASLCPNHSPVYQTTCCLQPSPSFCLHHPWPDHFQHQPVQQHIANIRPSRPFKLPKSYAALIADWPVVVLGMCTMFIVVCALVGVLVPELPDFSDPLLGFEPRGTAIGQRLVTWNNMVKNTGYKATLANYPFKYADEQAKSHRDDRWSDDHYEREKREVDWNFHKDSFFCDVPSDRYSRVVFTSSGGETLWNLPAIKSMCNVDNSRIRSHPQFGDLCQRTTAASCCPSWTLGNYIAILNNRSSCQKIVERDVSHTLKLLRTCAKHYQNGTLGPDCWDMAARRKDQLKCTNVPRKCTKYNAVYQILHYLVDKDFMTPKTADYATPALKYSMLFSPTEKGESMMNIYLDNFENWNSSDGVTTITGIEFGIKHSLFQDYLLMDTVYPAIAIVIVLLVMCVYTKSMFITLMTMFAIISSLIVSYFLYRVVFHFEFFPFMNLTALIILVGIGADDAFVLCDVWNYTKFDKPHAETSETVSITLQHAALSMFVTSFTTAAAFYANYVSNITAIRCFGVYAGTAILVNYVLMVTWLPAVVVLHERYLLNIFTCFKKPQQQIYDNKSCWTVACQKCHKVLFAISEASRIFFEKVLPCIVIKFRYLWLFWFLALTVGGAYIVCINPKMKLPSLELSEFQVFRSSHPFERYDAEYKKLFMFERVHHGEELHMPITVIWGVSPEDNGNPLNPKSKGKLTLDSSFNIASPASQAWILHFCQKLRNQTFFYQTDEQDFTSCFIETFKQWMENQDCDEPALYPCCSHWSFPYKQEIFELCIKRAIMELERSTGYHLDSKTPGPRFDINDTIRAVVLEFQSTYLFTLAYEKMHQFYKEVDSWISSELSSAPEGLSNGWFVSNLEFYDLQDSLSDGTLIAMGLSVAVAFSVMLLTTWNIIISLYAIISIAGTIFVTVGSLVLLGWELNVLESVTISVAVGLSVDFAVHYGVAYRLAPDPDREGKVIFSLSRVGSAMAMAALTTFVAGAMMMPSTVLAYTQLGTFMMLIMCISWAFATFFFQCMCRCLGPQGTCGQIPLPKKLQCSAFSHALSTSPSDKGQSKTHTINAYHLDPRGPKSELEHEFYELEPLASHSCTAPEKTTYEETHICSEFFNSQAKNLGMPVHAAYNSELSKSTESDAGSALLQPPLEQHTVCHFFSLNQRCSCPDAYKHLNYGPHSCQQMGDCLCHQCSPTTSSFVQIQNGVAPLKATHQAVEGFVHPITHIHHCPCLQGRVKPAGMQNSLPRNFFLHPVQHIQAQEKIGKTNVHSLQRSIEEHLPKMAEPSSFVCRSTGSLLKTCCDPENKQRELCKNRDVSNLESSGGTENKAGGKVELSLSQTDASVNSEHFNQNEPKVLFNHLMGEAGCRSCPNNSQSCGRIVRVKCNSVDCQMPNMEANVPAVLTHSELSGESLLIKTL
UniProt Q15465: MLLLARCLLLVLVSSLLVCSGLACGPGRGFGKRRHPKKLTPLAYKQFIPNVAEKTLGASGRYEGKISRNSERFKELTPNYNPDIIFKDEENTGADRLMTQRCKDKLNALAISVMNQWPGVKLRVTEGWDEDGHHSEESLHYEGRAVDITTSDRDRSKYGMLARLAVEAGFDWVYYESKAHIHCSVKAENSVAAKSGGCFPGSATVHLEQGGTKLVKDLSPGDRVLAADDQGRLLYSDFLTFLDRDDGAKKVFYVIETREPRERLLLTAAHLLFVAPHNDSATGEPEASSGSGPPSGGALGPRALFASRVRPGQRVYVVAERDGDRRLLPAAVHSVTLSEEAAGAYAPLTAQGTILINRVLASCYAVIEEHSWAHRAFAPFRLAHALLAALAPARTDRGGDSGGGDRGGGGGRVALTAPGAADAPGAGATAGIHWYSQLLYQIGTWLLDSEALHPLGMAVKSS

Experiment [1] addresses wild-type human Dispatched1 (hDisp1), N-terminal Flag tag and C-terminal Twin-Strep tag (human) (UniProt Q96F81). Nature of the experiment: pull-down; hDisp1 constructs (Flag, Twin-Strep) co-expressed with hShh in HEK293F cells; membranes solubilised with 1% LMNG; anti-Flag resin, then Strep-Tactin resin; eluate analysed by Western blotting; 25 mM Tris pH 8.0, 150 mM NaCl. Background: A western blot detects proteins with antibodies after separation by electrophoresis.

Experiment [2] addresses hDisp1^NNN (D572N, D573N, D1051N), N-terminal Flag tag and C-terminal Twin-Strep tag (human) (UniProt Q96F81). Described as above.

No constants are given. Whether binding was seen depends on the method and setting. In cells and extracts the contact can be indirect. Binding calls can cover weak binding; strength is not graded here.

Turning to “human Sonic hedgehog (hShh), expressed from the full-length precursor (from UniProt Q15465) (ligand)”, the binding entry in experiment [1] and in experiment [2] was “binds” each time.
